Some results were stated once for a whole list of compounds, not compound by compound.
Test system: wild type CMT-64 cells
Settings: Day 2, from 5×10^5 on day 0; ethanol 20 mM

Cc1cn[nH]c1 [4-MP, 4-methylpyrazole]
cell numbers: 12-13.5×10^5
